The text below walks through data of publication doi:10.1101/205625.

Sequences of proteins named here, by UniProt entry; tags and fusion partners are left off.
UniProt Q96ST8: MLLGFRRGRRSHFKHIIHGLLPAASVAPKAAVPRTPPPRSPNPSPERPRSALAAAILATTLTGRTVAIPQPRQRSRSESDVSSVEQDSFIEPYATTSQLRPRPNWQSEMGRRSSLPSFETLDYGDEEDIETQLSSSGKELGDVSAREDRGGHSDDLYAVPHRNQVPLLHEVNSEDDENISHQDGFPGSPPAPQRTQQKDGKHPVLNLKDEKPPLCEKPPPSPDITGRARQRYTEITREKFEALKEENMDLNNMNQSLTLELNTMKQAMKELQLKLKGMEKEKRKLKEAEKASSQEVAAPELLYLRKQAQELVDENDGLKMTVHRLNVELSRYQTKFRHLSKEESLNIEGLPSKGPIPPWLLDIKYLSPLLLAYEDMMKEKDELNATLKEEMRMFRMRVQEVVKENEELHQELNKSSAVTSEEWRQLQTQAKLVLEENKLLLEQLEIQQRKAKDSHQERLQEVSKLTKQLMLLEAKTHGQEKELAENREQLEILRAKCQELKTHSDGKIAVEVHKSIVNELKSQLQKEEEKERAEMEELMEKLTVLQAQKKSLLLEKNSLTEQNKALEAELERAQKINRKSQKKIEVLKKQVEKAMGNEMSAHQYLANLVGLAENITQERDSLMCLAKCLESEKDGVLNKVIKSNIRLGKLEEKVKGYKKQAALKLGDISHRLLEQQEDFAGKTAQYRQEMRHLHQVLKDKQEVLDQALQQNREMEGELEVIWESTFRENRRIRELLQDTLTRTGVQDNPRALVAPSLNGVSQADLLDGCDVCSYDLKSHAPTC

Results are given in words; binding and its absence hold for the method and conditions named. Some entries that bind do so weakly or less than the wild type.

What all share (assay): two-hybrid
One test has as its target T1, SCLT1 constructs (human) (UniProt Q96NL6).
T1 sequence: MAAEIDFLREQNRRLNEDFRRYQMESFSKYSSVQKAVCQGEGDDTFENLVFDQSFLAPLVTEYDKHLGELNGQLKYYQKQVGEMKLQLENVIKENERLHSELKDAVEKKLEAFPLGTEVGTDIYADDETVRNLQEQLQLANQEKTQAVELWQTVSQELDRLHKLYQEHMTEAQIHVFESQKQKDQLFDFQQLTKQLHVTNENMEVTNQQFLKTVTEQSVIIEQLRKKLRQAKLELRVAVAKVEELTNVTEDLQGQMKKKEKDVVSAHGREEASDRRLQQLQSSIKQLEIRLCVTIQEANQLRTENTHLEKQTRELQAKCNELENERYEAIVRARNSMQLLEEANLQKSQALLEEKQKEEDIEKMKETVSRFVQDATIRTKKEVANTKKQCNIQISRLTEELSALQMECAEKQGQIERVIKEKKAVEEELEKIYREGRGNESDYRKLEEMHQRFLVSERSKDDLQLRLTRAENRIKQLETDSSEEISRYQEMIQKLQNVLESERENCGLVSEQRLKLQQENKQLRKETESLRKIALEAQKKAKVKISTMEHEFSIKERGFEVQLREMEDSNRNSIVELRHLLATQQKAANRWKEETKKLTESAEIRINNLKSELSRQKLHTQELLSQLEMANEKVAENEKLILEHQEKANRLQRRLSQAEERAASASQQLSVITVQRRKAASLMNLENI

A further test concerns the target T2, Cep83 constructs (human) (UniProt Q9Y592).
T2 sequence: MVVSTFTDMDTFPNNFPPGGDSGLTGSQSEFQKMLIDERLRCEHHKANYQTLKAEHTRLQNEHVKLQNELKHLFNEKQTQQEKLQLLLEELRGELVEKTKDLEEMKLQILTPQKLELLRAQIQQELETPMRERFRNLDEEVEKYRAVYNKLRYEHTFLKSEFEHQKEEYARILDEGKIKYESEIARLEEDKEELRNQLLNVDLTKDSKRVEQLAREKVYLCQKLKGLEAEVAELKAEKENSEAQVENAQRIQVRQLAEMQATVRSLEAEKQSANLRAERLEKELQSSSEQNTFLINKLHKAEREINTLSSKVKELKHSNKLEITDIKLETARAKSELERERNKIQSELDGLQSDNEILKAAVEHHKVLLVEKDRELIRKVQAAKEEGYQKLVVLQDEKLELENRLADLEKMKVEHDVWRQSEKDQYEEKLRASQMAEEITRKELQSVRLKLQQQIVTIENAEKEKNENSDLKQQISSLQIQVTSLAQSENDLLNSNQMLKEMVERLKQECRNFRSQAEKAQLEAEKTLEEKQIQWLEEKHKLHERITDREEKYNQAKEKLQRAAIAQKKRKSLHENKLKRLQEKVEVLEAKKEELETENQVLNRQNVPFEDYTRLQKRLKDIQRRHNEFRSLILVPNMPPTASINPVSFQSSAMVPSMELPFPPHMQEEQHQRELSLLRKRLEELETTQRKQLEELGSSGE

Another test deals with Cep123 (human) (UniProt Q96ST8).
Test [1] concerns the target T3, coiled coil domain of SCLT1 (SCLT1 C-terminus, 554-688 aa) (human) (UniProt Q96NL6).
T3 sequence: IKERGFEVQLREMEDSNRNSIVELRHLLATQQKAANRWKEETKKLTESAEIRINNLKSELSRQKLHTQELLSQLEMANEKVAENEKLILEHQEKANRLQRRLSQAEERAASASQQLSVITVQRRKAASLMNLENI

B1: LRRC45, full length (protein, UniProt Q96CN5 1-670)
chain: MEEFRRSYSRLCRESGAEPQEAVLQQLHQLPRGRLDLATQSLTVETCRALGKLLPRETLCTELVLSDCMLSEEGATLLLRGLCANTVLRFLDLKGNNLRAAGAEALGKLLQQNKSIQSLTLEWNSLGTWDDAFATFCGGLAANGALQRLDLRNNQISHKGAEELALALKGNTTLQQLDLRWNNVGLLGGRALMNCLPSNRTLWRLDLAGNNIPGDVLRAVEQAMGHSQDRLTTFQENQARTHVLSKEVQHLREEKSKQFLDLMETIDKQREEMAKSSRASAARVGQLQEALNERHSIINALKAKLQMTEAALALSEQKAQDLGELLATAEQEQLSLSQRQAKELKLEQQEAAERESKLLRDLSAANEKNLLLQNQVDELERKFRCQQEQLFQTRQEMTSMSAELKMRAIQAEERLDMEKRRCRQSLEDSESLRIKEVEHMTRHLEESEKAMQERVQRLEAARLSLEEELSRVKAAALSERGQAEEELIKAKSQARLEEQQRLAHLEDKLRLLAQARDEAQGACLQQKQVVAEAQTRVSQLGLQVEGLRRRLEELQQELSLKDQERVAEVSRVRVELQEQNGRLQAELAAQEALREKAAALERQLKVMASDHREALLDRESENASLREKLRLREAEIARIRDEEAQRASFLQNAVLAYVQASPVRTLSPPK
On to B1, for which the binding result is “binds” with SCLT1 constructs (human), “binds” with Cep83 constructs (human) and “no binding” with Cep123 (human).

B2: leucine-rich repeats of LRRC45 (LRRC45 1-222 aa) (domain or fragment, UniProt Q96CN5 1-222)
chain: MEEFRRSYSRLCRESGAEPQEAVLQQLHQLPRGRLDLATQSLTVETCRALGKLLPRETLCTELVLSDCMLSEEGATLLLRGLCANTVLRFLDLKGNNLRAAGAEALGKLLQQNKSIQSLTLEWNSLGTWDDAFATFCGGLAANGALQRLDLRNNQISHKGAEELALALKGNTTLQQLDLRWNNVGLLGGRALMNCLPSNRTLWRLDLAGNNIPGDVLRAVEQ
On to B2, for which the binding entry in test [1] is reported as “binds”.
